In paper PMC3631182:
These are yes or no findings as the source states them, for the method shown. Binding seen in cells or lysates may run through a third protein.

Protein sequences, listed by entry. Tags and fused reporters are not part of them.
UniProt Q7KNM2: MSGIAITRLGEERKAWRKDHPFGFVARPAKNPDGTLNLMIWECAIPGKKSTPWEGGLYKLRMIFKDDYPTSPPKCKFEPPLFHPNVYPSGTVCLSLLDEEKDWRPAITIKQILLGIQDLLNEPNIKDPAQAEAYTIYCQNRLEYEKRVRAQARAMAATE
UniProt Q8IN94: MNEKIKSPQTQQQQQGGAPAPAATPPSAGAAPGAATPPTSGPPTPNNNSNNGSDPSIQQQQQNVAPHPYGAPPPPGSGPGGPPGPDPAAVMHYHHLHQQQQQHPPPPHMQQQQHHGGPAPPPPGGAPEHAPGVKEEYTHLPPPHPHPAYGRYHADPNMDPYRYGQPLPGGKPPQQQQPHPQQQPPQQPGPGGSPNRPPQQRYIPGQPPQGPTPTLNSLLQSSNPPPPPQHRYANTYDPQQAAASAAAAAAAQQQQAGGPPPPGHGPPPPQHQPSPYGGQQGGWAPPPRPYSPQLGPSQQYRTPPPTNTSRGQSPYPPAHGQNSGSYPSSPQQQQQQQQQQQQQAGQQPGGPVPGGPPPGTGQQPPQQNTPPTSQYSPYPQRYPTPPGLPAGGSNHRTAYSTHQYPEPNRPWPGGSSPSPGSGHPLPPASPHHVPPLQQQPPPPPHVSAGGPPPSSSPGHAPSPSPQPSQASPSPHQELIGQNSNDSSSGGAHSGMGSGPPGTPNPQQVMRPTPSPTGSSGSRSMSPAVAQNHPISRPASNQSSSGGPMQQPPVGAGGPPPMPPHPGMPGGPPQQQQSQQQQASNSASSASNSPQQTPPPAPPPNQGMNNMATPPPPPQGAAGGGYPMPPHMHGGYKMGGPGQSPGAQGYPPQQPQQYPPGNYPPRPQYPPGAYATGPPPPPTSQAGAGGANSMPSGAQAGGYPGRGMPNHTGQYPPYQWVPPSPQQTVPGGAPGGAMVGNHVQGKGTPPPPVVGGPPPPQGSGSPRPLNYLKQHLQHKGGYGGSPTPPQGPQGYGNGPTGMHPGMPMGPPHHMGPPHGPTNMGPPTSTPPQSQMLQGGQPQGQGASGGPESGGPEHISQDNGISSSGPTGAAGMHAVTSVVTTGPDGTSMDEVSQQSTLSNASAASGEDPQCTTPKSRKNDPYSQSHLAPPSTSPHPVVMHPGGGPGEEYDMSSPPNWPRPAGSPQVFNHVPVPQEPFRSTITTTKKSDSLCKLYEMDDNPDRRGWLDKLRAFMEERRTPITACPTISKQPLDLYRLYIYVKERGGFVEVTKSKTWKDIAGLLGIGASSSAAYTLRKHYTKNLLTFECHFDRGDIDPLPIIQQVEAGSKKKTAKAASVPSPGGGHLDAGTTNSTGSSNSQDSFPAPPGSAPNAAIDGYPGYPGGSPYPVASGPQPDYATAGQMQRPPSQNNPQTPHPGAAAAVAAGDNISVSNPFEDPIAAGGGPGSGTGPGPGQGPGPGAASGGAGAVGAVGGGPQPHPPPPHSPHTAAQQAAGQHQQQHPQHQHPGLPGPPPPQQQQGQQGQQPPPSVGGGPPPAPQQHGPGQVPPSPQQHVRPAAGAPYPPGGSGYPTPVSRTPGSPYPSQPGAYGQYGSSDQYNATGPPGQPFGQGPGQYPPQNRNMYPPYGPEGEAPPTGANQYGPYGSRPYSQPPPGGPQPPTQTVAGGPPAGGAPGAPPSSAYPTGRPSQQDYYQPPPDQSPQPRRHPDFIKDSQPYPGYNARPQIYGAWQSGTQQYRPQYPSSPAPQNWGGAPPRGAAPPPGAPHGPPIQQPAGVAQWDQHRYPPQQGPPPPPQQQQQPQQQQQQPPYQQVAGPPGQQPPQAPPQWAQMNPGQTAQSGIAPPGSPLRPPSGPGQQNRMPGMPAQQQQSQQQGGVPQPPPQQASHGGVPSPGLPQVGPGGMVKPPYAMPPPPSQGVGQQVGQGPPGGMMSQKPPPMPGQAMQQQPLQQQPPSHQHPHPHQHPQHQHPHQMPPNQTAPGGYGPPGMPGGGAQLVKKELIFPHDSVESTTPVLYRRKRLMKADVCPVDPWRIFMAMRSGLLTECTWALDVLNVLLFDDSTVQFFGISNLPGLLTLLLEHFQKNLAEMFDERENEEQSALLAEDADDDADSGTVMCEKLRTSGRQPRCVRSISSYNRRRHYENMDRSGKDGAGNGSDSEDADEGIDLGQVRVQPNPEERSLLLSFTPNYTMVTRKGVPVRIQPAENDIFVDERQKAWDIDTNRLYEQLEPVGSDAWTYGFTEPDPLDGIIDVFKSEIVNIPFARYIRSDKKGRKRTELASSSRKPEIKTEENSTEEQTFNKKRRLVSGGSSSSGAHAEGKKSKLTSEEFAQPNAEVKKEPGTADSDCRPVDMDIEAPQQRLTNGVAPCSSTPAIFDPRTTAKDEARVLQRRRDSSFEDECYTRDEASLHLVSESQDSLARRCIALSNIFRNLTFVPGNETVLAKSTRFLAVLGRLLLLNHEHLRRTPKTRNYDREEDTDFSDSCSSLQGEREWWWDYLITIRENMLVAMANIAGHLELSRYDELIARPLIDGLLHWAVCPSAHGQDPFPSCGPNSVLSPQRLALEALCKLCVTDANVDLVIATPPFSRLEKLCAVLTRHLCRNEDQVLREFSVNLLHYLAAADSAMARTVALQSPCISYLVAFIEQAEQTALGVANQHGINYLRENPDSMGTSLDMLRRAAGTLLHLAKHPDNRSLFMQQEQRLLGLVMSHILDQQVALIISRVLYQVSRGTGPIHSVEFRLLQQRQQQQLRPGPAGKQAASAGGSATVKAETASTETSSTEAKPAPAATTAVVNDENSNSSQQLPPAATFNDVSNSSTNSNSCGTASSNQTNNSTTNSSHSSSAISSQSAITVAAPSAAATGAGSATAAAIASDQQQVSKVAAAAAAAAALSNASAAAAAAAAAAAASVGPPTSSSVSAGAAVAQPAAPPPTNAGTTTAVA

Columns and labels:
[1] = molecular target: GST-Ubc9 fusion protein (Drosophila Ubc9) (Drosophila melanogaster) (UniProt Q7KNM2); assay: pull-down; 10 µg GST-Ubc9 as bait, 500 µg soluble nuclear fraction from 3-21 hour embryos; extensive stringent washing; Western with TnaA_(XSPRING) antibody; only the target purified
[2] = molecular target: Osa, subunit of the BRM chromatin remodeling complex, native protein of Drosophila embryos (Drosophila melanogaster (endogenous in Ore-R embryos)) (UniProt Q8IN94); assay: co-IP; immunoprecipitation with Osa antibodies (1 µg) from total protein extract of 3-21 hour embryos (3.7 mg); two preclearing steps, Buffer PD; irrelevant antibody as mock

binding [1]: no binding
binding [2]: no binding
B1: Cdk7, native protein of Drosophila embryos (protein, UniProt Q24216 1-353)
chain: MLPNANDKTERYAKLSFLGEGQFATVYKARDTVTNQIVAVKKIKKGSREDARDGINRTALREIKILQELQHENIIGLVDVFGQLSNVSLVFDFMDTDLEVIIKDNKIILTQANIKAYAIMTLKGLEYLHLNWILHRDLKPNNLLVNSDGILKIGDFGLAKSFGSPNRIYTHHVVTRWYRSPELLFGARQYGTGVDMWAVGCILAELMLRVPFMPGDSDLDQLTRIFSTLGTPTEAEWPHLSKLHDYLQFRNFPGTPLDNIFTAAGNDLIHLMQRLFAMNPLRRVSCREALSMPYFANKPAPTVGPKLPMPSAILAAKEGANPQTGDTKPALKRKLVETTVRGNGLAQKKRLQF
